The supplement of paper PMC11659162
Some of the results follow. This is a noisy data set.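 The cells are a human neuroglioma line carrying a green fluorescent autophagy reporter.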

Tests used:
H4 GFP-LC3 [1] = assay: cell viability (scaled to control) (fraction of control); higher = more viable cells
H4 GFP-LC3 [2] = assay: ACBP immunofluorescence intensity (scaled to control) (AU (scaled)); higher = more intracellular ACBP/DBI

Structure (SMILES)	cell viability (H4 GFP-LC3 [1]; 6 h)	cell viability (H4 GFP-LC3 [1]; 24 h)	ACBP immunofluorescence intensity (H4 GFP-LC3 [2]; 6 h)	ACBP immunofluorescence intensity (H4 GFP-LC3 [2]; 24 h)
CC[C@H](C)[C@@H]1NC(=O)[C@H](Cc2ccc(O)cc2)NC(=O)[C@@H](N)CSSC[C@@H](C(=O)N2CCC[C@H]2C(=O)N[C@@H](CC(C)C)C(=O)NCC(N)=O)NC(=O)[C@H](CC(N)=O)NC(=O)[C@H](CCC(N)=O)NC1=O (5 µM)	1.16	0.866	0.374	0.813
CNC1(C)C2CCC(C2)C1(C)C (stereo unspecified) (5 µM)	0.985	1.39	0.999	0.858
CCN1CCC[C@H]1CNC(=O)c1c(OC)ccc(Br)c1OC (5 µM)	0.887	1.29	0.89	0.729
Clc1ccccc1CN1CCc2sccc2C1 (5 µM)	0.918	0.806	1	0.642
C[C@H](N)C(=O)NCC(=O)N[C@H]1CSSC[C@@H](C(=O)O)NC(=O)[C@H](CO)NC(=O)[C@H]([C@@H](C)O)NC(=O)[C@H](Cc2ccccc2)NC(=O)[C@H]([C@@H](C)O)NC(=O)[C@H](CCCCN)NC(=O)[C@H](Cc2c[nH]c3ccccc23)NC(=O)[C@H](Cc2ccccc2)NC(=O)[C@H](Cc2ccccc2)NC(=O)[C@H](CC(N)=O)NC(=O)[C@H](CCCCN)NC1=O (5 µM)	1.09	1.03	0.893	0.761
O=C(O)c1cc(O)c2ccc(Cl)cc2n1 (5 µM)	1.07	1.34	0.778	0.381
Cc1ccc(O)c(N=Nc2ccccc2)n1 (5 µM)	0.913	1.33	0.924	0.686
CC(COc1ccccc1)N(CCCl)Cc1ccccc1 (stereo unspecified) (5 µM)	0.744	0.71	0.908	0.53
O=C(Nc1ccccc1)N[C@@H]1C[C@@H](C(=O)O)Nc2cc(Cl)cc(Cl)c21 (5 µM)	1.07	1.41	0.769	0.742
N=C(N)N/N=C/c1c(Cl)cccc1Cl (5 µM)	0.592	0.965	0.935	0.646
CC(C)NC[C@H](O)COc1cccc2ccccc12 (5 µM)	0.718	0.905	0.918	0.389
CC(N)(COP(=O)(O)O)C(=O)O (racemic) (5 µM)	0.875	0.998	0.998	0.877
c1cnc(N2CCN(Cc3ccc4c(c3)OCO4)CC2)nc1 (5 µM)	0.886	1.29	0.677	0.511
CN1CCc2ccccc2Cc2[nH]c3ccccc3c2CC1 (5 µM)	0.864	1.24	0.899	0.753
CC1c2ccccc2CN1CC1=NCCN1 (stereo unspecified) (5 µM)	0.946	1	0.86	0.553
Cn1c(=O)[nH]c2ncn(C)c2c1=O (5 µM)	1.02	1.06	0.955	0.738
O=C(c1ccc(F)cc1)C1CCN(CCn2c(=O)[nH]c3ccccc3c2=O)CC1 (5 µM)	0.818	1.01	0.992	0.869
COCCCC/C(=N\OCCN)c1ccc(C(F)(F)F)cc1 (5 µM)	1.15	0.843	0.517	0.533
Cc1nc2c([nH]1)c(=O)n(C)c(=O)n2Cc1ccco1 (5 µM)	1.02	0.965	0.923	0.516
CC(C)(C)NCC(O)c1ccc(O)c(CO)c1 (stereo unspecified) (5 µM)	0.834	0.781	0.778	0.354
N[C@@H](Cc1cc(CP(=O)(O)O)cc(-c2ccccc2Cl)c1)C(=O)O (5 µM)	1.07	1.32	0.66	0.752
CC(C)NCC(O)c1ccc(NS(C)(=O)=O)cc1 (stereo unspecified) (5 µM)	0.708	0.962	0.908	0.805
COc1ccc(CN(CCN(C)C)c2ccccn2)cc1 (5 µM)	1.15	1.08	0.96	0.829
N=C(N)c1ccc(OCCCCCOc2ccc(C(=N)N)cc2)cc1 (5 µM)	1.11	1.09	0.809	0.611
NC1(C(=O)O)CCc2cc(C(=O)O)ccc21 (stereo unspecified) (5 µM)	0.896	0.936	0.906	0.333
C[C@@H]1C[C@H]2[C@@H]3CCC4=CC(=O)C=C[C@]4(C)[C@@]3(F)[C@@H](O)C[C@]2(C)[C@@]1(O)C(=O)CO (5 µM)	1.18	1.24	0.682	0.185
Clc1ccc2c(c1)N=C(N1CCNCC1)c1ccccc1N2 (5 µM)	0.891	1.01	0.998	0.864
COC(=O)[C@H]1[C@H]2C[C@H]3c4[nH]c5ccccc5c4CCN3C[C@H]2CC[C@@H]1O (5 µM)	0.719	0.79	0.728	0.401
N=C(N)NCCCCNC(=N)N (5 µM)	1.03	1.16	0.974	0.836

At a glance, some entries already given:
Structure (SMILES)	cell viability (H4 GFP-LC3 [1]; 6 h)	cell viability (H4 GFP-LC3 [1]; 24 h)	ACBP immunofluorescence intensity (H4 GFP-LC3 [2]; 6 h)	ACBP immunofluorescence intensity (H4 GFP-LC3 [2]; 24 h)
CCN1CCC[C@H]1CNC(=O)c1c(OC)ccc(Br)c1OC (5 µM)	0.887	1.29	0.89	0.729
Clc1ccccc1CN1CCc2sccc2C1 (5 µM)	0.918	0.806	1	0.642
